Results on 19 compounds are retold here after the supplement of paper PMC4635364.

The structures appear in SMILES notation. Values joined by “and” are separate entries in the source; they are usually repeats but may differ in a detail not shown here. Equal entries are not always repeated. Structures can show the parent of a compound that is named as a salt. This is one part of the list. Repeats in this data set agree poorly, so a single value says little.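 Human fetal ventral-midbrain neural progenitor line ReNCell VM, differentiated without mitogens. Images stained for doublecortin (early neurons) or tyrosine hydroxylase (dopaminergic neurons) were scored by blinded raters against untreated wells (0 = no change). Repeats and both raters were averaged, and compounds averaging 2 or higher were picked as hits for retesting.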

One assay deals with ReNCell VM. The assay is described as follows: neuronal differentiation score (DCX+ cell fraction vs untreated, manual image score) (score (-3 to 3)); higher = more neuronal differentiation. As to conditions: library: Tocriscreen; 2 uM; 2 weeks.
As for `Cc1c(C2CCN(CCc3ccccc3)CC2)noc1-c1ccc(Cl)cc1` [L-741,742 hydrochloride], the neuronal differentiation score is inactive: 0.
For `CN(C)C(=O)C(=O)c1cn(C)c2cc(Cl)c(C(=O)N3CCC(Cc4ccc(F)cc4)CC3)cc12`, the neuronal differentiation score is inactive: 0.
Same read-out and setting: for `N[C@@H](CS(=O)O)C(=O)O` [L-Cysteinesulfinic acid] the value was inactive: 0; for `N[C@@H](Cc1cc(CP(=O)(O)O)cc(-c2ccccc2Cl)c1)C(=O)O`, inactive: 0; for `O=C1CC2(CCCC2)CC(=O)N1CCCCNCC1COc2ccccc2O1` (centres undefined), inactive: 0.
For `C[S+]([O-])c1ccc(-c2nc(-c3ccc(F)cc3)c(-c3ccncc3)[nH]2)cc1` (centres undefined), the neuronal differentiation score was active: 3 and inactive: 1.

The next assay deals with ReNCell VM. The assay is described as follows: dopaminergic neuron differentiation score (TH+ cell fraction vs untreated, manual image score) (score (0 to 3)); higher = more TH+ dopaminergic neuron differentiation. As to conditions: library: LOPAC; 2 uM; 4 weeks; BDNF 10 ng/ml + GDNF 10 ng/ml.
In the case of `COc1ccccc1N1CCN(CCCNc2c(C)c(=O)n(C)c(=O)n2C)CC1` [Urapidil, 5-Methyl-], the “dopaminergic neuron differentiation score” value is inactive: 0.
For the compound `COC(=O)C(C)(N)Cc1ccc(O)cc1` (racemic) [alpha-Methyl-DL-tyrosine methyl ester hydrochloride], the “dopaminergic neuron differentiation score” value is inactive: 1.
As for `Nc1ncnc2c1ncn2[C@@H]1O[C@H](COP(=O)(O)CP(=O)(O)OP(=O)(O)O)[C@H](O)C1O` (stereo partly drawn) [alpha,beta-Methylene adenosine 5'-triphosphate dilithium], the “dopaminergic neuron differentiation score” value was inactive: 0.
Turning to `CC(=O)OCC1=C(C(=O)O)N2C(=O)[C@@H](NC(=O)Cc3cccs3)[C@H]2SC1` [Cephalothin sodium], the “dopaminergic neuron differentiation score” value is inactive: 0.
With `CC(N)=O` [Acetamide], the “dopaminergic neuron differentiation score” value is inactive: 0.

The assay is the same for the next values; noted with them: library: Prestwick; 2 uM; 4 weeks; BDNF 10 ng/ml + GDNF 10 ng/ml.
Turning to `CC(CN(C)C)CN1c2ccccc2CCc2ccccc21` (centres undefined) [Trimipramine maleate salt], the “dopaminergic neuron differentiation score” value is inactive: 0.
For the compound `C[C@H]1[C@H](NC(=O)/C(=N\OC(C)(C)C(=O)O)c2csc(N)n2)C(=O)N1S(=O)(=O)O` [Aztreonam], the “dopaminergic neuron differentiation score” value is inactive: 0.
For `CCOC(=O)OC(C)OC(=O)[C@@H]1N2C(=O)[C@@H](NC(=O)[C@H](N)c3ccccc3)[C@H]2SC1(C)C` (some centres undefined) [Bacampicillin hydrochloride], the “dopaminergic neuron differentiation score” value was inactive: 0.
On the same count and under the same terms, for `COc1ccc(-c2cc(=S)ss2)cc1` [Anethole-trithione] the value was inactive: 0.
Consider `Cn1c(=O)c2c(ncn2CC2OCCO2)n(C)c1=O` [Doxofylline], for which the “dopaminergic neuron differentiation score” value was inactive: 0.
Regarding `CCC(=O)OCC(=O)[C@@]1(OC(=O)CC)[C@@H](C)C[C@H]2[C@@H]3CCC4=CC(=O)C=C[C@]4(C)[C@@]3(Cl)[C@@H](O)C[C@@]21C` [Beclomethasone dipropionate], the “dopaminergic neuron differentiation score” value is inactive: 0.
With `Nc1ccn([C@@H]2O[C@H](CO)[C@@H](O)[C@@H]2O)c(=O)n1` [Cytarabine], the “dopaminergic neuron differentiation score” value was inactive: 0.
As to `CN(C)CCOC(c1ccc(Cl)cc1)c1ccccn1` (centres undefined) [Carbinoxamine maleate salt], the “dopaminergic neuron differentiation score” value is inactive: 0.
